Measurements from publication PMC10516654, “Structural and functional characterization of MrpR, the master repressor of the Bacillus subtilis prophage SPβ”.
Construct, isoform or probe ends are uncertain for at least one entry. A weaker result is weaker than the reference pair of the same experiment. Protein sequences can lack the tags named with them.

Target: T1, MrpR (Bacillus subtilis prophage SPβ) (UniProt O34558)
T1 sequence (looked up, limits assumed): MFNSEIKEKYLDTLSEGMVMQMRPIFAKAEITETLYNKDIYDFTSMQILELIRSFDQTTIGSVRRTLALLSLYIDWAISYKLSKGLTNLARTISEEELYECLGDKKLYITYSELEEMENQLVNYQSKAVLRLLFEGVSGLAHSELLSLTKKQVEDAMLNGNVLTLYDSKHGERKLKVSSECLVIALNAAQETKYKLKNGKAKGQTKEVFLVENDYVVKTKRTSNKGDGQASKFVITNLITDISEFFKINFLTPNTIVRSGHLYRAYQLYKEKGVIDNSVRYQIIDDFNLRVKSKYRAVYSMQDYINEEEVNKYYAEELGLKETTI
Assay: EMSA
Conditions: herring sperm DNA, EMSA: same buffer plus 50 ug/ml herring sperm DNA, RT 15 min, 6% native PAGE 0.5x TBE, recombinant protein, probe letters rebuilt from the primers and the genome

Sequence	binding result (shift at 5-fold protein excess over 50 nM DNA, protein details: C-terminal His6, label: Dyomics 781 at 5' end of reverse primer)	binding result (shift at approx. 10- to 20-fold excess over 50 nM DNA, protein details: C-terminal His6, label: Cy3 at 5' end of forward primer)
CAGCATACTCCAATGCACTTCTTGCTGCCTTTGTCTTAACATCTAGGTTTAAACAGTAATCTTTCATTAATTCATATTCACGGTCTGGATACTGACTCTTAACAATGTTGACTATTGAAGAAAATTCATTAAATGTTTTCCCATCATGGTTTAAGAAGTCATAAAGAGGATTGGGGTTTTTAAGGCCAGCTACTGTTGCCCATTTATTCATTAAAGAGTTGTCATTTTCCAAGTCTTTCTTCATAGCTATCCTTATTAACTCCATTATTTCCCCTCATTTCTTTTTGTTGTCTTTATTGGTTAACTTAATAATACTATAGATCACATTACGAGTCAATTATTTTATACATATTTTTTGTATTTGTAATCTCTTTAAAATTCCAATTTTAACTAGACACAATGAGGACTAAACCTCATTGTGTTCTTCTAAAGCAAAAGGTCCTACTTAAGGCTATAATACACCTCTTCCGCAATATCCTTTGCAAACCTAGCGAAAATTTCTCTATCAAAACTTCTTAAGCATTTAGCTAAGGACAGGATATTCTGCACATGGTCAAGTGTATTAGTCAAATCTAATGCCGTTACCAAAGAAAGCAACATGTCTTTGTAGTTCATATCTCCGGC (double strand) [PaimR EMSA fragment with SPBRE]	binds	
CTTTTGTAATAGCAGCCGATTGTAATGTCAATGTAGCTGCATCGTCTATTGACATGAAAAATCTGGTCATGTTTTTGTCTGTGATGGTCAGAGGTTCACCCTCCATCATCTGTTCAAATAATATGGGGATGACCGAACCTCTGGAACCGAGAACATTTCCAAAGCGGACCGAACAAAACAAGGTTCCTTTGTTTTGGACGTGGCGGTTTGCTTGATGAAACAGCTTTTCAGATAACAGCTTGGTGGCACCCATTGTGTTCACAGGAGATACAGCTTTATCTGTTTTTTAAGATACTTACTACTTTTCTTAGTGGAAACTATTAGTGGCTGTGAGGTCAAAAATGAAATTAAACCTTAGGATAGGGGTTATTTCAAATTGAGCTGGTATAGGCCCTTTTCTTTTTTGTGTCATGTTAACAATAACATCTTTTAAGACCATCCTTAATAGCTCGTTCTTTTTCTCTGAGCTTGATTCAATGTGATACTGGTCAATTATTTTATTTATGTTGTTTCTCACTGTATTACTGTCTATTTCTGATTGTGTATCTTGTAATCCATTGAGCTCATTCTTTGCATTCTGGAGCTCTTTAAATTCTTCATCTAATGCAGC (double strand) [attR EMSA fragment (no SPBRE)]		binds more weakly
